Experimental data taken from the supplement of paper PMC7661543.
The effect of the compound repeats well; differences between the knockouts mostly do not.

System: HCC-38
Experiment: relative cell number vs DMSO control (72 h) (% of DMSO); higher = less growth inhibition (more cells)
Experimental: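 QMAP-Seq: a pool of 5 breast cancer cell lines (ZR-75-1, SKBR3, HCC-38, MDA-MB-231, BT-20), each carrying 12 doxycycline-inducible Cas9 sgRNA perturbations (11 knockouts plus non-targeting sgNT), was treated with compounds for 72 h at four 10-fold doses (10 nM-10 uM or 1 nM-1 uM range). Barcodes were amplified and sequenced, and cell number was interpolated from 293T spike-in standard curves. The result is expressed as % of the median of DMSO wells. Two biological replicates.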

COc1cc([C@@H]2c3cc4c(cc3[C@@H](O[C@@H]3O[C@@H]5CO[C@@H](C)O[C@H]5[C@H](O)[C@H]3O)[C@H]3COC(=O)[C@H]23)OCO4)cc(OC)c1O [Etoposide]
Conditions	relative cell number
sgRNA knockout: sgATF3, 10 nM	75
sgRNA knockout: sgATF3, 100 nM	90.1
sgRNA knockout: sgATF3, 1000 nM	34.7
sgRNA knockout: sgATF3, 10000 nM	22.6
sgRNA knockout: sgATF4, 10 nM	63.3
sgRNA knockout: sgATF4, 100 nM	75
sgRNA knockout: sgATF4, 1000 nM	26.97
sgRNA knockout: sgATF4, 10000 nM	18.4
sgRNA knockout: sgATF6, 10 nM	67.2
sgRNA knockout: sgATF6, 100 nM	78.1
sgRNA knockout: sgATF6, 1000 nM	35.5
sgRNA knockout: sgATF6, 10000 nM	20.8
sgRNA knockout: sgATG7, 10 nM	73.6
sgRNA knockout: sgATG7, 100 nM	79
sgRNA knockout: sgATG7, 1000 nM	33.1
sgRNA knockout: sgATG7, 10000 nM	24.4
sgRNA knockout: sgERN1, 10 nM	74.3
sgRNA knockout: sgERN1, 100 nM	74.3
sgRNA knockout: sgERN1, 1000 nM	33.5
sgRNA knockout: sgERN1, 10000 nM	18.4
sgRNA knockout: sgHSF1, 10 nM	60.1
sgRNA knockout: sgHSF1, 100 nM	74.3
sgRNA knockout: sgHSF1, 1000 nM	30.6
sgRNA knockout: sgHSF1, 10000 nM	23.5
sgRNA knockout: sgHSF2, 10 nM	79.1
sgRNA knockout: sgHSF2, 100 nM	93.3
sgRNA knockout: sgHSF2, 1000 nM	39.8
sgRNA knockout: sgHSF2, 10000 nM	24.4
sgRNA knockout: sgKEAP1, 10 nM	68.278
sgRNA knockout: sgKEAP1, 100 nM	81.9
sgRNA knockout: sgKEAP1, 1000 nM	30.9
sgRNA knockout: sgKEAP1, 10000 nM	22
sgRNA knockout: sgNFE2L2, 10 nM	57.8
sgRNA knockout: sgNFE2L2, 100 nM	65.1
sgRNA knockout: sgNFE2L2, 1000 nM	24.5
sgRNA knockout: sgNFE2L2, 10000 nM	15.3
sgRNA knockout: sgSLC35F2, 10 nM	71
sgRNA knockout: sgSLC35F2, 100 nM	89.2
sgRNA knockout: sgSLC35F2, 1000 nM	37.2
sgRNA knockout: sgSLC35F2, 10000 nM	20.5
sgRNA knockout: sgXBP1, 10 nM	57.5
sgRNA knockout: sgXBP1, 100 nM	68.6
sgRNA knockout: sgXBP1, 1000 nM	27.5
sgRNA knockout: sgXBP1, 10000 nM	17.9

CO[C@H]1C[C@@H]2CC[C@@H](C)[C@@](O)(O2)C(=O)C(=O)N2CCCC[C@H]2C(=O)O[C@H]([C@H](C)C[C@@H]2CC[C@@H](OCCO)[C@H](OC)C2)CC(=O)[C@H](C)/C=C(\C)[C@@H](O)[C@@H](OC)C(=O)[C@H](C)C[C@H](C)/C=C/C=C/C=C/1C [Everolimus]
Conditions	relative cell number
sgRNA knockout: sgATF3, 1 nM	63.5
sgRNA knockout: sgATF3, 10 nM	54.1
sgRNA knockout: sgATF3, 100 nM	61.1
sgRNA knockout: sgATF3, 1000 nM	65.5
sgRNA knockout: sgATF4, 1 nM	61.2
sgRNA knockout: sgATF4, 10 nM	57.3
sgRNA knockout: sgATF4, 100 nM	63.3
sgRNA knockout: sgATF4, 1000 nM	62.6
sgRNA knockout: sgATF6, 1 nM	65.8
sgRNA knockout: sgATF6, 10 nM	57.8
sgRNA knockout: sgATF6, 100 nM	62.5
sgRNA knockout: sgATF6, 1000 nM	58.7
sgRNA knockout: sgATG7, 1 nM	57.7
sgRNA knockout: sgATG7, 10 nM	56.1
sgRNA knockout: sgATG7, 100 nM	63.3
sgRNA knockout: sgATG7, 1000 nM	66.3
sgRNA knockout: sgERN1, 1 nM	62.3
sgRNA knockout: sgERN1, 10 nM	59.1
sgRNA knockout: sgERN1, 100 nM	69.29
sgRNA knockout: sgERN1, 1000 nM	68.02
sgRNA knockout: sgHSF1, 1 nM	65.9
sgRNA knockout: sgHSF1, 10 nM	61.1
sgRNA knockout: sgHSF1, 100 nM	62.9
sgRNA knockout: sgHSF1, 1000 nM	73.1
sgRNA knockout: sgHSF2, 1 nM	66.4
sgRNA knockout: sgHSF2, 10 nM	59.9
sgRNA knockout: sgHSF2, 100 nM	65.5
sgRNA knockout: sgHSF2, 1000 nM	62.7
sgRNA knockout: sgKEAP1, 1 nM	61.8
sgRNA knockout: sgKEAP1, 10 nM	62.5
sgRNA knockout: sgKEAP1, 100 nM	65.5
sgRNA knockout: sgKEAP1, 1000 nM	65.3
sgRNA knockout: sgNFE2L2, 1 nM	62.8
sgRNA knockout: sgNFE2L2, 10 nM	55.7
sgRNA knockout: sgNFE2L2, 100 nM	63.9
sgRNA knockout: sgNFE2L2, 1000 nM	59.3
sgRNA knockout: sgSLC35F2, 1 nM	61.7
sgRNA knockout: sgSLC35F2, 10 nM	59.9
sgRNA knockout: sgSLC35F2, 100 nM	65.8
sgRNA knockout: sgSLC35F2, 1000 nM	68.6
sgRNA knockout: sgXBP1, 1 nM	62.4
sgRNA knockout: sgXBP1, 10 nM	59.6
sgRNA knockout: sgXBP1, 100 nM	63.9
sgRNA knockout: sgXBP1, 1000 nM	60.7

CC(C)n1c(/C=C/C(O)CC(O)CC(=O)O)c(-c2ccc(F)cc2)c2ccccc21 (configuration not stated) [Fluvastatin]
Conditions	relative cell number
sgRNA knockout: sgATF3, 10 nM	119
sgRNA knockout: sgATF3, 100 nM	101.1
sgRNA knockout: sgATF3, 1000 nM	95.3
sgRNA knockout: sgATF3, 10000 nM	63.7
sgRNA knockout: sgATF4, 10 nM	116
sgRNA knockout: sgATF4, 100 nM	93.3
sgRNA knockout: sgATF4, 1000 nM	102.6
sgRNA knockout: sgATF4, 10000 nM	66.05
sgRNA knockout: sgATF6, 10 nM	108
sgRNA knockout: sgATF6, 100 nM	97.4
sgRNA knockout: sgATF6, 1000 nM	108
sgRNA knockout: sgATF6, 10000 nM	61.4
sgRNA knockout: sgATG7, 10 nM	106
sgRNA knockout: sgATG7, 100 nM	102
sgRNA knockout: sgATG7, 1000 nM	89.8
sgRNA knockout: sgATG7, 10000 nM	61.3
sgRNA knockout: sgERN1, 10 nM	106
sgRNA knockout: sgERN1, 100 nM	97.5
sgRNA knockout: sgERN1, 1000 nM	111
sgRNA knockout: sgERN1, 10000 nM	60.8
sgRNA knockout: sgHSF1, 10 nM	106
sgRNA knockout: sgHSF1, 100 nM	103
sgRNA knockout: sgHSF1, 1000 nM	93.7
sgRNA knockout: sgHSF1, 10000 nM	77
sgRNA knockout: sgHSF2, 10 nM	108
sgRNA knockout: sgHSF2, 100 nM	101
sgRNA knockout: sgHSF2, 1000 nM	97.2
sgRNA knockout: sgHSF2, 10000 nM	71.1
sgRNA knockout: sgKEAP1, 10 nM	91
sgRNA knockout: sgKEAP1, 100 nM	109
sgRNA knockout: sgKEAP1, 1000 nM	93.1
sgRNA knockout: sgKEAP1, 10000 nM	64.6
sgRNA knockout: sgNFE2L2, 10 nM	112
sgRNA knockout: sgNFE2L2, 100 nM	93.7
sgRNA knockout: sgNFE2L2, 1000 nM	112
sgRNA knockout: sgNFE2L2, 10000 nM	64.28
sgRNA knockout: sgSLC35F2, 10 nM	106
sgRNA knockout: sgSLC35F2, 100 nM	100
sgRNA knockout: sgSLC35F2, 1000 nM	101.5
sgRNA knockout: sgSLC35F2, 10000 nM	62.1
sgRNA knockout: sgXBP1, 10 nM	110
sgRNA knockout: sgXBP1, 100 nM	100
sgRNA knockout: sgXBP1, 1000 nM	105
sgRNA knockout: sgXBP1, 10000 nM	60.9
